Experimental data reported in patent publication US10426772B2, “Use of ergot alkaloids as an anthelmintic agent” (priority 2016, dated 2019).
For at least one compound, name, drawing or mass did not settle the structure.

System: adult schistosomes
Experiment: Adult schistosome mobility assay (Example 1)
Type: cell-based, Schistosoma mansoni

Question: With `COc1ccc2cc1Oc1ccc(cc1)C[C@H]1c3cc(c(OC)cc3CCN1C)Oc1c(OC)c(OC)cc3c1[C@H](C2)N(C)CC3` [tetrandrine] as the compound, how does the “effect on 5-HT stimulated movement of adult worms” value (5-HT 100 μM, male and female worms (FIG. 15G-I)) read?
Answer: lacked an inhibitory effect

Question: And the “effect on basal movement of adult worms” value (no 5-HT, male and female worms (FIG. 15D-F))?
Answer: enhanced movements of isolated female worms
